# Results of single-concentration screens

From ChEMBL document CHEMBL3988442, “University of Dundee, Small-Polar-MMV Screening Library” (2021).

Each number is a percent effect as filed.
How 0% and 100% were set is not recorded. Most values in the screen are low, and negative values occur.
This is an unselected part of the compounds tested.

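Whole-cell growth test on Mycobacterium tuberculosis, read after 4 days in a medium based on cholesterol and the lipid DPPC; the read-out is not stated. Tested at 500 µM. The record gives no direction; compounds that gave an IC50 in retests scored well above the rest, so higher reads as more growth inhibition. About 18,000 compounds were tested under these conditions; 5% (about 900) showed 50% or more at least once.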

SMILES	Percent Effect
CCCc1cc(CN(C)C(=O)c2nc(C)c[nH]2)n[nH]1	13.76
Cc1n[nH]c(SCC(=O)NCCCc2ncc[nH]2)n1	7.914
CC(Sc1ncccc1Br)C(=O)N(C)CCC#N (stereo not shown)	17.21
CC(C)CC(O)CNC(=O)c1cc(F)ccc1F (stereo not shown)	19.86
COC1CCN(C(=O)c2cnc3ccccn23)CC1	6.371
C[C@H](O)CNC(=O)NCC1CCCN1C1CCCCC1 (stereo partly shown)	9.459
CN(C)CCCNCCCNC(=O)c1ccco1	3.433
NCC(=O)Nc1ccc2c[nH]nc2c1	-12.94
CNC(=O)Cc1csc(-c2ccc(OC)c(OC)c2)n1	-16.76
Cc1cc(C)nc(CN(C)CCC(=O)NC(C)C)c1	4.431
Cc1ccc(F)c(NC(=O)C2CCCN2S(C)(=O)=O)c1 (stereo not shown)	-1.695
Cc1cc(S(=O)(=O)N[C@@H]2COCC[C@H]2O)c(Cl)cc1F	-6.491
CC(C)C(N)C1(CO)CCCC1 (stereo not shown)	-9.416
NC(=O)c1ccc(NC(=O)CSc2ncccn2)cc1	-0.5606
C=C(C)CN(CC)C(=O)Cc1c(C)noc1C	-9.028
O=C(Nc1nnc[nH]1)c1ccc(N2CCOCC2)nc1	0.4795
Cc1c[nH]c(CN(C)C(=O)CCCN2CCCC2=O)n1	-3.008
Cc1ccc(S(=O)(=O)Nc2ccc(N(C)C)nc2)cc1	32.96
CC(C#N)CNC(=O)c1c(O)cc(F)cc1F (stereo not shown)	41.37
COc1cc(CCN)c(SC)cc1OC	-2.88
CCn1nc(C)cc1C(=O)N1CCC(O)(C(F)(F)F)C1 (stereo not shown)	-1.974
CCc1nc(CNc2ccncc2C(N)=O)cs1	-6.395
CCc1ccccc1OCCN1CCOCC(O)C1 (stereo not shown)	8.674
NC(=O)CCCNC(=O)C1(c2ccccc2)CCC1	8.269
CC(O)CCc1ccc(O)cc1 (stereo not shown)	23.7
NCC(=O)Nc1ccc2c(c1)OCCO2	8.716
CCC(O)(CC)CN1CCC(O)CC1	-3.779
CCC(CNC(=O)c1c[nH]nn1)Oc1ccccc1F (stereo not shown)	14.77
O=C1CCN(Cc2ccc(OC(F)F)c(Br)c2)CCN1	28.36
CCOc1cccc(NC(=O)N(CC)CC)n1	4.137
COc1ccnc(NCCS(=O)(=O)c2ccccc2)n1	57.15
CN(C)c1ccc(CN2CCOCC(O)C2)cn1 (stereo not shown)	-3.345
O=C(Cc1c[nH]c2ncccc12)NCc1cccnc1	9.149
CN(CC1CCC1)C(=O)C1(c2cccnc2)CC1	8.865
Cc1csc(NC(=O)CSc2nccn2C)n1	-11.69
CN1CCCN(C(=O)NCCCNS(C)(=O)=O)CC1	-2.992
OC1(Cn2ccnn2)CCNC1 (stereo not shown)	-14.15
NCC1CC12CCS(=O)(=O)CC2 (stereo not shown)	5.107
COc1ccccc1CCNC(=O)CC1CCNC1 (stereo not shown)	14
COCCOC1CCN(c2nccc3occc23)CC1	38.22
O=C(Nc1ccncc1F)N1CCOCC1C1CC1 (stereo not shown)	-6.654
Cc1ccccc1CNC(=O)CCNS(C)(=O)=O	0.6089
CN(CCCNC(=O)CC1CCNC1)c1ccccc1 (stereo not shown)	11.2
O=S1(=O)CCNCc2ccccc21	-6.386
O[C@@]12CCNC[C@@H]1C2	6.268
CC(C)n1[nH]c(-c2ccccc2)cc1=N	-7.843
Cc1cc(C)c(C(=O)NCCc2ccncc2)c(=O)[nH]1	-11.48
CNc1snc(C)c1C(=O)NCc1cccnc1	15.31
CCN1C(=O)C[C@H](CN)[C@H]1c1ccncc1	0.421
CCOc1cc(C(=O)NC2=NCCS2)ccc1OC	-7.036
CCCNC(=O)c1csc(NC(C)=O)n1	-10.78
Cc1ncsc1CCCNC(=O)CC1C=CS(=O)(=O)C1 (stereo not shown)	-3.347
Cc1nn(CCNC(=O)CC2COCCN2)c(C)c1Cl (stereo not shown)	-15.32